Reference: paper PMC10372912, “Evidence for direct interaction between the oncogenic proteins E6 and E7 of high-risk human papillomavirus (HPV)” (The Journal of Biological Chemistry, 2023)
Results are given in words; binding and its absence hold for the method and conditions named. Binding seen in cells or lysates may run through a third protein. Some results given as binding are weak or reduced against the parent protein; the word gives no strength.

The chains behind the UniProt entries cited, without tags or fusion partners.
UniProt P03129: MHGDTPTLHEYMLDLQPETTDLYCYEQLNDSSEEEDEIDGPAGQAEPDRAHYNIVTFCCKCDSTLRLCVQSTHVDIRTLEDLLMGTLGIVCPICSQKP
UniProt P03126: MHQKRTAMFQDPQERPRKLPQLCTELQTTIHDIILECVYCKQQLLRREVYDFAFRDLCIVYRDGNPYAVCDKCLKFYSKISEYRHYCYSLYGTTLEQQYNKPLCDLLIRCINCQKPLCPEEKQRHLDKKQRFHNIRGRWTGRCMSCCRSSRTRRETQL

Molecular target: 3xHA-16E7 (human papillomavirus type 16) (UniProt P03129)
Assay: co-IP; lysates of C33A cells coexpressing 3xHA-E7 and untagged E6, 1 μM MG-132 for 16 h before harvest; anti-HA microbeads, 2 h at 4-8 °C, five washes with lysis buffer (50 mM Hepes pH 7.5, 150 mM NaCl, 0.1% NP-40), native elution with 3xHA peptide; immunoblot

untagged HPV16 E6 (from UniProt P03126 1-158)
binding: binds
